Data published in the supplement of paper PMC10849652.
The other results are listed elsewhere or left out.

Chains of the proteins cited; added tags and fusions are not shown. Lines headed by an entry give the natural chain unless they say otherwise; changes in a name come on top.
UniProt P47985: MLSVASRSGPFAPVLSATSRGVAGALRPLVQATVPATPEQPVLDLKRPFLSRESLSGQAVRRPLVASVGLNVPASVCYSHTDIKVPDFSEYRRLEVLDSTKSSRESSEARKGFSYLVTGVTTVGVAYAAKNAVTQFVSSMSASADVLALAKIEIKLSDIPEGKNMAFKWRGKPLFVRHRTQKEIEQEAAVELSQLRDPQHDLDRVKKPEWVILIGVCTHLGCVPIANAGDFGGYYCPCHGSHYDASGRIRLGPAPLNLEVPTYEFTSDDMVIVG
UniProt Q969X6: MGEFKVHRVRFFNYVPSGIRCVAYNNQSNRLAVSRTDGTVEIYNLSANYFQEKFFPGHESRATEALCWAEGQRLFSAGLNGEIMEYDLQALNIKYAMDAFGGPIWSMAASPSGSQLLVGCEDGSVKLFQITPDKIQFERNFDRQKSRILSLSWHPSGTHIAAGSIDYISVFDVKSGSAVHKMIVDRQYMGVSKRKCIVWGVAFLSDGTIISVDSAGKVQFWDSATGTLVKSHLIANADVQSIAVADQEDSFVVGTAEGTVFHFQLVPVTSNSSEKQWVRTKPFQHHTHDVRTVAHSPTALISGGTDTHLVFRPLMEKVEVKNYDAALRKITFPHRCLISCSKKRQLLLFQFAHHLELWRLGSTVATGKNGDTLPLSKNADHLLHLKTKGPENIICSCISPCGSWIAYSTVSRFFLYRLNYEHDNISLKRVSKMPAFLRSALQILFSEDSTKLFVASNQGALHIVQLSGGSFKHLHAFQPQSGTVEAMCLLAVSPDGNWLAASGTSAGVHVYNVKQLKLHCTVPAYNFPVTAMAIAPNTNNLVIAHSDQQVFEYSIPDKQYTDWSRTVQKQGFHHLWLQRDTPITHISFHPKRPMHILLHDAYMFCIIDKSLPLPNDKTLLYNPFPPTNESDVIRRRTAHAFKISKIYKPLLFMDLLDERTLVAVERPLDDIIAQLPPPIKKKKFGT
UniProt O14562: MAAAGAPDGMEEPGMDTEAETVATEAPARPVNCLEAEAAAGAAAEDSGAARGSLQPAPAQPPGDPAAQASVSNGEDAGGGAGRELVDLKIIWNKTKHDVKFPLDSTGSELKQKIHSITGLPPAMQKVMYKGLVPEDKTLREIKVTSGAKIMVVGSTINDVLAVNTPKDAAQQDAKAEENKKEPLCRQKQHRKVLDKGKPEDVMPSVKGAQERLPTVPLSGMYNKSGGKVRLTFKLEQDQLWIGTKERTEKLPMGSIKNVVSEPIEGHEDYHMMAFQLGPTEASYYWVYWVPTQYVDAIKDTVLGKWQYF
UniProt Q9BRT2: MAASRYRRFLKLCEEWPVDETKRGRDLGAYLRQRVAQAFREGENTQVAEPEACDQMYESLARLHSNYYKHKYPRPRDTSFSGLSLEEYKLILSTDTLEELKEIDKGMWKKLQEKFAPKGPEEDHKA
UniProt Q70J99: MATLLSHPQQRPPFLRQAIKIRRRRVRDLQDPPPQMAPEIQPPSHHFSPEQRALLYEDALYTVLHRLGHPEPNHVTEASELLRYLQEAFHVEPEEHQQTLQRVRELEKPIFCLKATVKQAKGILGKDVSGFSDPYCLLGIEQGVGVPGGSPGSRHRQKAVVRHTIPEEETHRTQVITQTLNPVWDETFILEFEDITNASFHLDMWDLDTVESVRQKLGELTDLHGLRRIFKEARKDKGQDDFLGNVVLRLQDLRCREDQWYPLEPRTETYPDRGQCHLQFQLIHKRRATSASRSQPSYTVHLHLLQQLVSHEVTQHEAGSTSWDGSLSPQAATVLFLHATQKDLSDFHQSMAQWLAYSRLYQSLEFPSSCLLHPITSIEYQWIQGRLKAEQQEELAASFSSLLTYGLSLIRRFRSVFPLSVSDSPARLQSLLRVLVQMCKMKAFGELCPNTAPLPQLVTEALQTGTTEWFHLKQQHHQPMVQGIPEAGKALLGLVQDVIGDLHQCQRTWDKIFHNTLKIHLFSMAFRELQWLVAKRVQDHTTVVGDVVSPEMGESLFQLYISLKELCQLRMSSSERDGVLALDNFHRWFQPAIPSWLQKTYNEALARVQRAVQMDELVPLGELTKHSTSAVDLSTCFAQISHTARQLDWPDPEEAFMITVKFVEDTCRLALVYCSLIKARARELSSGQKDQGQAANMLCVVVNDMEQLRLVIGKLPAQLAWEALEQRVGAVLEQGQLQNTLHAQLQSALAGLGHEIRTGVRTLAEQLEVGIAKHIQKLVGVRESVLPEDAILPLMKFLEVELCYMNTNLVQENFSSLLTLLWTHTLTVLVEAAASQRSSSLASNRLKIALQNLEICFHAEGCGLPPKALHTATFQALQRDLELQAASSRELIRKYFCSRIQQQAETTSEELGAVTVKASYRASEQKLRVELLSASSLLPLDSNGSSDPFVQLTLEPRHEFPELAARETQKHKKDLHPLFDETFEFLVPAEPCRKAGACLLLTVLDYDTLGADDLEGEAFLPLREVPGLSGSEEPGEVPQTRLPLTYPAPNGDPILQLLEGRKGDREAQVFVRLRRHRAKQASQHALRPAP
UniProt Q9P2Y5: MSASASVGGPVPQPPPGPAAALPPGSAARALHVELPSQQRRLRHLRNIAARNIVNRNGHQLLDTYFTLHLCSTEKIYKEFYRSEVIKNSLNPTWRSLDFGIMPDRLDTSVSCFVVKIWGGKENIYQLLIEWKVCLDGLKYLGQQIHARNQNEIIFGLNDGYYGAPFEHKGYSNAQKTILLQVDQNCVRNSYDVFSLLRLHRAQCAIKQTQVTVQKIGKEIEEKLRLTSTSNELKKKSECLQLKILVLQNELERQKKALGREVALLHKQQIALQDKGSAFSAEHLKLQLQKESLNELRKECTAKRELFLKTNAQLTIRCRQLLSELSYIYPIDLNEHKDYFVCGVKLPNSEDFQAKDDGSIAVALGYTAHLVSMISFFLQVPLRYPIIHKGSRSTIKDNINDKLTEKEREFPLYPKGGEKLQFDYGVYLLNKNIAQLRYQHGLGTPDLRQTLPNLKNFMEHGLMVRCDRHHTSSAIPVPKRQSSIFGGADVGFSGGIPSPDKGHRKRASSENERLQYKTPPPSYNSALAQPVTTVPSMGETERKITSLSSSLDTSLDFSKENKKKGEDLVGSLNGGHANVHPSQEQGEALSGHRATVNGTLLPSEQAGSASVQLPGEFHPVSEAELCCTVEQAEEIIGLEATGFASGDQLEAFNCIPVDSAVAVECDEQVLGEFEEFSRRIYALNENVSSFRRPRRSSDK
UniProt Q9H1C4: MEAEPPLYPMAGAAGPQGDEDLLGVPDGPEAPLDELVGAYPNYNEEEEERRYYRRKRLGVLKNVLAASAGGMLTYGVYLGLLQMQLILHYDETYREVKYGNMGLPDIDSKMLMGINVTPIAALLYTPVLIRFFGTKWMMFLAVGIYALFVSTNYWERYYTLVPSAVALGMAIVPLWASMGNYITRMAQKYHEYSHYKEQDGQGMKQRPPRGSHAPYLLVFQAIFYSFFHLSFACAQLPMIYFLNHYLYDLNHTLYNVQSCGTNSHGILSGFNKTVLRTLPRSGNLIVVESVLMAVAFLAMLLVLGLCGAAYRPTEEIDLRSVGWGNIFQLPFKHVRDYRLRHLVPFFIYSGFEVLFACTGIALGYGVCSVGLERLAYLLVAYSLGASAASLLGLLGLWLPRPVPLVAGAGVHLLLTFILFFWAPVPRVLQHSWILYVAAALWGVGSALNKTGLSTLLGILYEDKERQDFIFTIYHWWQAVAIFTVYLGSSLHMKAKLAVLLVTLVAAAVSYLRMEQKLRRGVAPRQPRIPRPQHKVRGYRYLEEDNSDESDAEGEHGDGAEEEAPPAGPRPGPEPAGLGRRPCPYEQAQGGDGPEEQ
UniProt A0JNW5: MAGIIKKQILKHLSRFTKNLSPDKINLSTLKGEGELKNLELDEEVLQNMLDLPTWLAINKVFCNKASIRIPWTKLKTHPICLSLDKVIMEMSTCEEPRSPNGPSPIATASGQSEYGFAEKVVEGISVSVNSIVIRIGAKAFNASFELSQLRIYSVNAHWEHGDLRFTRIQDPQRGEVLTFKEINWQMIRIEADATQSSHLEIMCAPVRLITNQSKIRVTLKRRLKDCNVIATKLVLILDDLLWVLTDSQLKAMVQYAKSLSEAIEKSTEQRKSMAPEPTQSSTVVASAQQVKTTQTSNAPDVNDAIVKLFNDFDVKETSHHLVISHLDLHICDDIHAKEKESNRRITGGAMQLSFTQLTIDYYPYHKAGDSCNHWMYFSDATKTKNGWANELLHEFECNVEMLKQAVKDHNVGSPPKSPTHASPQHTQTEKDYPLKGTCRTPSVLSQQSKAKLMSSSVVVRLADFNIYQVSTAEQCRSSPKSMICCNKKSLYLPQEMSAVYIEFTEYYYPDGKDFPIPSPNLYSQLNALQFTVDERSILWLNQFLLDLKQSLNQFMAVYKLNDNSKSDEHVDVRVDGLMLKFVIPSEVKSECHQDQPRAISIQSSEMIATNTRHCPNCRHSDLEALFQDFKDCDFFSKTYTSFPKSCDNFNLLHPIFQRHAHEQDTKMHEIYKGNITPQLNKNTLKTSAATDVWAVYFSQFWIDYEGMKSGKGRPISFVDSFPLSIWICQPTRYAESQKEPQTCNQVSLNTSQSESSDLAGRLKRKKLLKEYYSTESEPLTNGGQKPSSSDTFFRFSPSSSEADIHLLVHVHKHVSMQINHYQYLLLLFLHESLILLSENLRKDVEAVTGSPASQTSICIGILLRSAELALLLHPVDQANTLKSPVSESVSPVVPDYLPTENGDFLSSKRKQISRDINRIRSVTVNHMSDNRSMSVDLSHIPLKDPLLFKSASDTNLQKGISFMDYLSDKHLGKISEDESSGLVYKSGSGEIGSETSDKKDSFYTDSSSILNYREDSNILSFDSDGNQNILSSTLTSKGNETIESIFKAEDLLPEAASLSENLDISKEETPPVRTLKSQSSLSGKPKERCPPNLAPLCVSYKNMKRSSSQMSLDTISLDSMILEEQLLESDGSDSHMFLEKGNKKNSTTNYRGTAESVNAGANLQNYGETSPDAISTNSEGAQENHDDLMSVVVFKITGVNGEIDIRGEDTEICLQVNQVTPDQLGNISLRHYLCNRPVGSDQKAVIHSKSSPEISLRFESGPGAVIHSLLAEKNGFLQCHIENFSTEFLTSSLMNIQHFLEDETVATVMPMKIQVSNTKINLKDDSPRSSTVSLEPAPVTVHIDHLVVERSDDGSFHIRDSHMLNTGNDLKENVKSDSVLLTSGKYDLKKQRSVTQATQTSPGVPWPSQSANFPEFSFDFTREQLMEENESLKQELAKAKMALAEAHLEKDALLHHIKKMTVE
UniProt Q9Y4E8: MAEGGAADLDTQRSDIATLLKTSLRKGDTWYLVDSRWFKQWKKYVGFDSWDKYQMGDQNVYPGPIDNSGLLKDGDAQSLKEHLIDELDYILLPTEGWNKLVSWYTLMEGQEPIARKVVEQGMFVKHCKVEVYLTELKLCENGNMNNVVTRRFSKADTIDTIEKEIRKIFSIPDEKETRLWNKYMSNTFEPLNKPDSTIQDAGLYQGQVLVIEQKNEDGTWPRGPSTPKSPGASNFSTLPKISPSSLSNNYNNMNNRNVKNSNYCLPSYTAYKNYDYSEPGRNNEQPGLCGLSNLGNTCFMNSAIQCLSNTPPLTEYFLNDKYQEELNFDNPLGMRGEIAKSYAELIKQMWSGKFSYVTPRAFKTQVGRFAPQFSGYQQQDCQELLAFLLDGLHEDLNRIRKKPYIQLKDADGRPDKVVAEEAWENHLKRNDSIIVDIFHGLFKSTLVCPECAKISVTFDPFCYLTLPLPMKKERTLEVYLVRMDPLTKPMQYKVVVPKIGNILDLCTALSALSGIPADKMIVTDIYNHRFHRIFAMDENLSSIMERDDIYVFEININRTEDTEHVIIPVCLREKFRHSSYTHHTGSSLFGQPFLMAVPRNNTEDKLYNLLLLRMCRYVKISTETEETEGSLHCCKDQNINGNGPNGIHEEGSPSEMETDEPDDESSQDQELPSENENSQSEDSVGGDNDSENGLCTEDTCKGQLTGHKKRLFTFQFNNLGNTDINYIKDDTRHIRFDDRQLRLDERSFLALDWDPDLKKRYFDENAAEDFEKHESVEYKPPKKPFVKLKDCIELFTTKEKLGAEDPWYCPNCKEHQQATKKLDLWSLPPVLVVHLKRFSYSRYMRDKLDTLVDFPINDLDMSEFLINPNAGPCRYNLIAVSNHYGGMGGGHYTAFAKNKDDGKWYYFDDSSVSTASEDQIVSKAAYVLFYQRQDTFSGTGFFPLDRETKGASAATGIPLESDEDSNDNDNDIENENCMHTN
UniProt Q8WVY7: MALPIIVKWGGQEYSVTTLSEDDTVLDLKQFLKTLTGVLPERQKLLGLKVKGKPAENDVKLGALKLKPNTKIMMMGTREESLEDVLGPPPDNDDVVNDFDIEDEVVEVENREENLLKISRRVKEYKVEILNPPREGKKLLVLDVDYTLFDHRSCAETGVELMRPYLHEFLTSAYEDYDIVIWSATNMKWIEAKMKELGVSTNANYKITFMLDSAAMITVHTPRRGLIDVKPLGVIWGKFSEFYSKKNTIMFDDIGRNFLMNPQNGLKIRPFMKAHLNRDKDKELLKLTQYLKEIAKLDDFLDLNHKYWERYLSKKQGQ

Tests used:
Experiment in all cases: log2 fold change, soluble protein after heating vs DMSO (PISA); higher = thermal stabilisation; K562 cells, 10 uM, 30 min; active = over 0.2 and 3.5 SD of the protein, either way, in both replicates (recomputed)
[1] = compound: Cc1ccc(NC(=O)c2ccc(CN3CC[C@H](N(C)C)C3)c(C(F)(F)F)c2)cc1Nc1nccc(-c2cncnc2)n1 [bafetinib]
Procedure, shortened: (§1)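 For each measurement, 10 μM compound was applied for 30 min to K562 cells at 2×10^6 cells/mL. Aliquots were heated for 3 min across 48°C-58°C, pooled, and extracted in PBS with 0.5% NP-40 at 4°C; the supernatant after 21,000xg for 90 min was soluble protein. This was quantified by TMTpro 16plex LC-MS/MS with channel sums equalised, and thermal stability was reported relative to control samples from duplicates, on a log2 fold-change scale.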

[2] = compound: Cc1cccc(CC(=O)N2CCc3c2ccc(-c2cn(C)c4ncnc(N)c24)c3F)n1
Procedure, shortened: as §1

[3] = compound: Cc1cn(-c2cc(NC(=O)c3ccc(C)c(Nc4nccc(-c5cccnc5)n4)c3)cc(C(F)(F)F)c2)cn1 [nilotinib]
Procedure, shortened: as §1

[4] = compound: Cc1nc(Nc2n[nH]c3c2CN(C(=O)N[C@H](CN(C)C)c2ccccc2)C3(C)C)c2sccc2n1
Procedure, shortened: as §1

[5] = compound: Cc1nc(Nc2ncc(C(=O)Nc3c(C)cccc3Cl)s2)cc(N2CCN(CCO)CC2)n1 [dasatinib]
Procedure, shortened: as §1

[6] = compound: Cc1ncc(-c2ccnc(Nc3ccc(S(C)(=O)=O)cc3)n2)n1C(C)C
Procedure, shortened: as §1

[7] = compound: Cn1cc(-c2ccc3c(c2)CCN3C(=O)Cc2cccc(C(F)(F)F)c2)c2c(N)ncnc21
Procedure, shortened: as §1

[8] = compound: Cn1cc(-c2ccc3nnc(C(F)(F)c4ccc5ncccc5c4)n3n2)cn1
Procedure, shortened: as §1

[9] = compound: Cn1cncc1[C@@](N)(c1ccc(Cl)cc1)c1ccc2c(c1)c(-c1cccc(Cl)c1)cc(=O)n2C [tipifarnib]
Procedure, shortened: as §1

[10] = compound: FC(F)(F)c1ccc(/C=C/c2nc(COc3ccc(CCCCn4ccnn4)cc3)co2)cc1 [mubritinib]
Procedure, shortened: as §1

Measured: log2 fold change

USP25 isoform 3 (UniProt Q9UHP3)
inactive: [1] -0.043 | [2] 0.029 | [3] -0.021 | [4] -0.017 | [5] -0.048 | [6] 0.018 | [7] -0.038 | [8] 0.009 | [9] -0.024 | [10] 0.023

UQCRFS1 (UniProt P47985)
inactive: [1] -0.001 | [2] -0.129 | [3] 0.032 | [4] -0.003 | [5] 0.024 | [6] -0.032 | [7] 0.059 | [8] 0.094 | [9] 0.038 | [10] -0.021

USP48 isoform 8 (UniProt Q86UV5)
inactive: [1] 0.005 | [2] -0.089 | [3] -0.097 | [4] -0.362 | [5] -0.139 | [6] -0.073 | [7] -0.041 | [8] 0.097 | [9] -0.11 | [10] -0.021

VANGL1 (UniProt Q8TAA9)
inactive: [1] 0.077 | [2] 0.03 | [3] 0 | [4] -0.263 | [5] 0.004 | [6] 0.006 | [7] -0.008 | [8] -0.108 | [9] 0.016 | [10] 0.01

UXT isoform 2 (UniProt Q9UBK9)
inactive: [1] 0.016 | [2] 0.036 | [3] 0.04 | [4] -0.068 | [5] -0.033 | [6] 0.001 | [7] 0.11 | [8] 0.026 | [9] -0.144 | [10] 0.014

UTP4 (UniProt Q969X6)
inactive: [1] -0.04 | [2] -0.013 | [3] 0.021 | [4] 0.035 | [5] 0.039 | [6] 0.143 | [7] -0.042 | [8] -0.014 | [9] 0.058 | [10] -0.025

UQCC1 (UniProt Q9NVA1)
inactive: [1] -0.052 | [2] -0.018 | [3] 0.017 | [4] -0.014 | [5] 0.023 | [6] -0.001 | [7] 0.021 | [8] 0.041 | [9] 0.064 | [10] 0.065

UBXN10 (UniProt Q96LJ8)
inactive: [1] 0.002 | [2] -0.266 | [3] -0.085 | [4] 0.141 | [5] -0.032 | [6] -0.098 | [7] -0.075 | [8] 0.021 | [9] 0.01 | [10] 0.067

UBFD1 (UniProt O14562)
inactive: [1] -0.048 | [2] 0.031 | [3] -0.009 | [4] 0.004 | [5] 0 | [6] -0.017 | [7] 0.016 | [8] 0.018 | [9] -0.024 | [10] 0.024

UQCC2 (UniProt Q9BRT2)
inactive: [1] -0.123 | [2] -0.098 | [3] -0.03 | [4] 0.043 | [5] -0.158 | [6] -0.004 | [7] -0.034 | [8] 0.041 | [9] 0.017 | [10] 0

UPF1 (UniProt Q92900)
inactive: [1] -0.02 | [2] -0.01 | [3] -0.057 | [4] 0.043 | [5] -0.006 | [6] 0.058 | [7] -0.003 | [8] 0.009 | [9] -0.023 | [10] 0.003

UNC13D isoform 3 (UniProt Q70J99)
inactive: [1] 0.293 | [2] -0.022 | [3] -0.213 | [4] -0.353 | [5] -0.071 | [6] 0.244 | [7] -0.141 | [8] -0.145 | [9] 0.011 | [10] -0.095

VARS2, A0A0G2JL52
inactive: [1] -0.051 | [2] 0 | [3] -0.043 | [4] 0.012 | [5] 0.009 | [6] 0.003 | [7] 0.037 | [8] -0.021 | [9] -0.01 | [10] -0.049

UBR5 (UniProt O95071)
inactive: [1] -0.015 | [2] -0.014 | [3] -0.051 | [4] -0.093 | [5] 0.013 | [6] 0.021 | [7] -0.166 | [8] -0.015 | [9] 0.082 | [10] -0.083

UVRAG (UniProt Q9P2Y5)
inactive: [1] 0.068 | [2] -0.047 | [3] -0.084 | [4] 0.043 | [5] -0.178 | [6] 0.009 | [7] 0.026 | [8] 0.053 | [9] -0.057 | [10] 0.023

UNC93B1 (UniProt Q9H1C4)
inactive: [1] -0.082 | [2] 0.006 | [3] 0.03 | [4] -0.147 | [5] 0.029 | [6] 0.045 | [7] -0.098 | [8] -0.047 | [9] 0.042 | [10] 0.177

UCK1 (UniProt Q9HA47)
inactive: [1] -0.041 | [2] 0.012 | [3] -0.004 | [4] -0.117 | [5] -0.032 | [6] -0.01 | [7] 0.043 | [8] -0.083 | [9] 0.04 | [10] -0.022

UHRF1BP1 (UniProt Q6BDS2)
inactive: [1] 0.042 | [2] 0.015 | [3] 0.138 | [4] 0.003 | [5] 0.044 | [6] -0.023 | [7] 0.045 | [8] 0.021 | [9] -0.005 | [10] 0.028

UPRT (UniProt Q96BW1)
inactive: [1] 0.08 | [2] 0.009 | [3] -0.141 | [4] -0.011 | [5] -0.054 | [6] -0.007 | [7] 0.168 | [8] 0.04 | [9] -0.067 | [10] -0.027

UHRF1BP1L (UniProt A0JNW5)
inactive: [1] 0.055 | [2] -0.002 | [3] 0.105 | [4] 0.005 | [5] -0.003 | [6] -0.029 | [7] 0.036 | [8] 0.038 | [9] -0.065 | [10] 0.007

UCKL1 (UniProt Q9NWZ5)
inactive: [1] 0.083 | [2] 0.067 | [3] 0.127 | [4] -0.006 | [5] -0.015 | [6] -0.027 | [7] 0.013 | [8] 0.036 | [9] -0.011 | [10] -0.021

UQCRC2 (UniProt P22695)
inactive: [1] -0.015 | [2] 0.007 | [3] 0.008 | [4] 0.023 | [5] 0.022 | [6] -0.011 | [7] 0.035 | [8] 0.002 | [9] -0.015 | [10] 0.016

USP34 (UniProt Q70CQ2)
inactive: [1] -0.004 | [2] -0.002 | [3] -0.054 | [4] 0.034 | [5] -0.141 | [6] -0.223 | [7] -0.012 | [8] 0.033 | [9] -0.134 | [10] -0.049

USP15 (UniProt Q9Y4E8)
inactive: [1] -0.01 | [2] 0.047 | [3] -0.064 | [4] -0.082 | [5] -0.099 | [6] 0.005 | [7] 0.021 | [8] 0.044 | [9] -0.081 | [10] 0.023

USP3 (UniProt Q9Y6I4)
inactive: [1] 0.011 | [2] -0.009 | [3] -0.125 | [4] -0.198 | [5] -0.185 | [6] -0.026 | [7] 0.027 | [8] -0.023 | [9] -0.226 | [10] 0.045

UGGT1 (UniProt Q9NYU2)
inactive: [1] -0.005 | [2] -0.007 | [3] -0.015 | [4] 0.016 | [5] -0.007 | [6] -0.036 | [7] -0.017 | [8] -0.001 | [9] -0.026 | [10] -0.043

UBLCP1 (UniProt Q8WVY7)
inactive: [1] 0.016 | [2] -0.034 | [3] -0.101 | [4] 0.074 | [5] -0.063 | [6] 0.116 | [7] -0.052 | [8] 0.006 | [9] -0.072 | [10] 0.155

Retrieved one by one from the entries so far, 2 records:
UVRAG (UniProt Q9P2Y5)
inactive: [1] 0.068 | [2] -0.047 | [3] -0.084 | [4] 0.043 | [5] -0.178 | [6] 0.009 | [7] 0.026 | [8] 0.053 | [9] -0.057 | [10] 0.023

UBLCP1 (UniProt Q8WVY7)
inactive: [1] 0.016 | [2] -0.034 | [3] -0.101 | [4] 0.074 | [5] -0.063 | [6] 0.116 | [7] -0.052 | [8] 0.006 | [9] -0.072 | [10] 0.155

More results follow:

UGT8 (UniProt Q16880)
inactive: [1] 0.031 | [2] 0.158 | [3] 0.252 | [4] 0.134 | [5] 0.027 | [6] -0.105 | [7] 0.067 | [8] 0.082 | [9] 0.373 | [10] 0.088

USP9X (UniProt Q93008)
inactive: [1] -0.016 | [2] 0.071 | [3] -0.099 | [4] -0.056 | [5] -0.122 | [6] -0.004 | [7] -0.052 | [8] -0.021 | [9] -0.126 | [10] 0.052
